Out of some 360,000 compounds screened, about 7,500 (2.1%) were called active. Inconclusive means that the source gave no clear call. Such entries were picked first, then a sample of the others. Calls come from the whole dose curve; as a rule, active = well fitted inhibition curve with a large enough effect; inconclusive = small, poorly fitted or top-dose-only effect, or effect the other way; inactive = flat fitted curve, though single readings scatter. A potency beside an inconclusive call is a rough fit, not a confirmed value.
Assay: Nrf2 qHTS screen for inhibitors; note: nearly all actives have a fitted effect of over 60% in size
Details: A549 ARE-Fluc reporter, luciferase luminescence, 18-24 h; activity change, negative = inhibition: at 46 µM (top of the series)
How it was run: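 A549 ARE_Fluc cells (5000/well, 5% FBS OPTI-MEM) pre-incubated 2 h, then treated with compounds 18-24 h at 37C/5% CO2 in concentration-response. CellTiter-Fluor viability read first; BugLite luciferase luminescence after 15 min at room temperature gives Nrf2 activity.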
% is set by controls: 0 for no effect and ±100 for the full control effect; potency is the fitted concentration of half-maximal effect.

Structure (SMILES)	Potency	activity change, negative = inhibition
CN(C)S(=O)(=O)c1cccc(NC(=O)c2ccc(OC(F)(F)F)cc2)c1	inconclusive: 29.1 µM [falling, single point]	
Cc1ccc(/C=C2\SC(=S)N(CCCC(=O)Nc3ccc(O)cc3)C2=O)cc1	active: 16.4 µM	
CC(C)CCN(Cc1ccco1)C(=O)c1cc2c(s1)-c1ccccc1OC2	inconclusive: 29.1 µM [falling, single point]	
COc1ccc(N2CCN(C(=O)c3ccc(CNS(=O)(=O)c4cccc(OC)c4)cc3)CC2)cc1	inconclusive: 18.4 µM [falling, single point]	
Cc1cc2oc(C(=O)Nc3nonc3C)c(C)c2cc1C	inconclusive: 4.11 µM [activator, partial curve, poor fit]	
O=C(N/N=C/c1ccccn1)c1c[nH]c2ccccc12	inconclusive: 2.31 µM [activator, partial curve]	
Cc1ccc(NC(=O)CC(=O)c2ccc([N+](=O)[O-])cc2)cc1S(=O)(=O)Nc1cccc(Cl)c1	active: 16.4 µM	
O=C(COc1ccccc1)OCc1cc(=O)n2nc(C3CC3)sc2n1	inconclusive: 8.2 µM [activator, partial curve, poor fit]	
Cc1ccc2nc(NC(=O)COC(=O)c3ccco3)sc2c1	inconclusive: 10.3 µM [activator, partial curve]	
CCN(CC)S(=O)(=O)c1ccc(OC(C)C)c(NC(=O)C2=COCCO2)c1		inactive: -0.954%
C=CCN(CC=C)C(=O)COC(=O)c1ccc(Sc2ncn[nH]2)c([N+](=O)[O-])c1		inactive: -6.8%
Cc1ccccc1N(CC(=O)N/N=C/c1ccc(N(C)C)cc1)C(=O)c1ccccc1		inactive: 8.08%
CCC(Cc1ccccc1)NC(=O)CN1C(=O)COc2ccc(S(=O)(=O)N3CCCCCC3)cc21 (configuration not stated)		inactive: -2.5%
O=C(N/N=C/c1cc(Cl)ccc1O)c1cccnc1		inactive: -0.888%
COc1ccccc1N1CCN(C(=O)C2CCN(S(=O)(=O)Cc3ccccc3)CC2)CC1		inactive: 28%
COc1ccc(CCNC(=O)CCCn2c(=O)c3cccn3c3ccccc32)cc1OC	inconclusive: 29.1 µM [activator, single point]	
COc1ccccc1Oc1ccc(-c2cnc3ccccc3n2)cc1[N+](=O)[O-]	inconclusive: 29.1 µM [falling, single point]	
CC(C)(C)c1ccc(OCC(O)CS(=O)(=O)c2ccccn2)cc1 (configuration not stated)	inconclusive: 23.1 µM [activator, partial curve]	
COc1ccc(OC)c(CN2CCN(C(=O)[C@@H](NC(=O)c3cccc(C)c3)C(C)C)CC2)c1		inactive: -20.6%
O=C(CSc1n[nH]c(-c2ccco2)n1)Nc1sc2c(c1C(=O)Nc1ccccc1)CCCC2	inconclusive: 14.6 µM [falling, partial curve, poor fit]	
CCCc1[nH]nc2c1C(/C(C)=C/c1ccccc1)C(C#N)=C(N)O2 (configuration not stated)	inconclusive: 20.6 µM [falling, single point]	
O=[N+]([O-])c1ccc(C[n+]2ccccc2)cc1	active: 20.6 µM	
O=C(NCCc1ccccc1)c1cnc2n(c1=O)CCS2	inconclusive: 10.3 µM [activator, partial curve, poor fit]	

Structure (SMILES)	Potency	activity change, negative = inhibition
O=C(COC(=O)CNC(=O)c1ccc(Cl)cc1)Nc1ccc2c(c1)OCCO2		inactive: 17.5%
COc1ccc(C(=O)NC2CCCc3ccccc32)cc1[N+](=O)[O-] (configuration not stated)		inactive: -28.8%
COc1ccc(C(=O)NC(=S)NNC(=O)[C@H]2C[C@@H]2c2ccccc2)cc1OC	active: 16.4 µM	
C/C(=N\NC(=S)NCc1ccccc1)c1ccccc1	inconclusive: 29.1 µM [activator, single point]	
CCOc1ccc(OCC)c(NC(=O)CN2CCN(CC(=O)NC(C)C)CC2)c1	inconclusive: 18.4 µM [falling, partial curve, poor fit]	
O=C(NCCN1CCN(c2ccccc2Cl)CC1)Nc1ccccc1	inconclusive: 23.1 µM [activator, partial curve, poor fit]	
CCN(CC)C(=O)[C@H]1C[C@H](CC(=O)NCCN2CCOCC2)C(=O)N2CCc3c([nH]c4cc(-c5ccco5)ccc34)[C@]12C		inactive: 12%
O=C(NCCc1cccnc1)c1cc(COc2ccc(F)cc2F)on1	inconclusive: 20.6 µM [falling, partial curve, poor fit]	
Cc1ccc2nc(-c3cccs3)c(Nc3ccccc3)n2c1		inactive: 9.98%
C=CCn1c(SCC(=O)Nc2cc(C)c(Cl)cc2OC)nnc1-c1ccco1	inconclusive: 20.6 µM [falling, partial curve, poor fit]	
Cc1ccc(/C=N/NC(=O)c2c[nH]c3ccccc23)o1	inconclusive: 23.1 µM [activator, single point]	
Cc1ccc2[nH]c(C)c(/C=C/c3cc[n+](C)cc3)c2c1	inconclusive: 7.31 µM [falling, partial curve, poor fit]	
O=C(NCC1CCCO1)Nc1cccc(Cl)c1 (configuration not stated)	inconclusive: 13 µM [activator, partial curve, poor fit]	
Cc1nc2c(C(=O)N3CCN(c4ccccn4)CC3)cnn2c(C)c1Cc1cccc(Cl)c1	inconclusive: 29.1 µM [falling, single point]	
S=C(NCc1ccccc1)NCc1cccc(CNC(=S)NCc2ccccc2)c1	inconclusive: 23.1 µM [falling, single point]	
COc1cc(OC)cc(C(=O)NC(C)c2cnn(-c3ccccc3C)c2C)c1 (configuration not stated)	inconclusive: 6.51 µM [falling, partial curve, poor fit]	
Cc1ccc(-c2nn(-c3ccccc3)cc2C2CC(c3ccccc3)=NN2C(=O)CCC(=O)O)cc1 (configuration not stated)	active: 20.6 µM	
CCN(C(=O)COC(=O)c1c(NC(C)=O)sc(C)c1C)c1c(N)n(Cc2ccccc2)c(=O)[nH]c1=O	inconclusive: 29.1 µM [falling, partial curve, poor fit]	
COCc1nn2cc(-c3ccc(C)cc3)nc2s1	inconclusive: 0.164 µM [activator, full curve]	
Cc1cc(=O)[nH]c(N/N=C/c2ccccn2)n1		inactive: -3.58%
COc1ccc(-c2nc(C#N)c(N3CCc4ccccc4C3)o2)cc1OC	active: 20.6 µM	
O=C(Nc1ncc2c(n1)CC(c1cccc(Cl)c1)CC2=O)c1ccco1 (configuration not stated)	inconclusive: 25.9 µM [falling, single point]	
CCN(c1ccccc1)S(=O)(=O)c1ccc(OC)c(NS(=O)(=O)c2cccs2)c1	inconclusive: 16.4 µM [falling, single point]	

Structure (SMILES)	Potency	activity change, negative = inhibition
CN(C)C=Nc1nonc1-c1ccccc1		inactive: -1.93%
COC(=O)/C=C/c1sc2nc(C)cc(C)c2c1N=CN(C)C	inconclusive: 13 µM [activator, partial curve, poor fit]	
COc1ccc(C(=O)NC(=S)NNC(=O)Cc2cccs2)cc1	inconclusive: 29.1 µM [falling, single point]	
CCN(CC)CCCNc1oc(-c2ccc(OC)c(OC)c2)nc1C#N		inactive: -9.84%
O=c1cc(-c2cccc(Br)c2)nc(-c2ccccc2F)o1	inconclusive: 32.6 µM [falling, single point]	
CN1C(=O)Cc2cc(S(=O)(=O)NCCc3ccc(Cl)cc3)ccc21	inconclusive: 23.1 µM [activator, partial curve, poor fit]	
COc1ccc(-c2noc(CSc3nnc(C)n3-c3ccc(C)cc3)n2)cc1OC	inconclusive: 11.6 µM [falling, partial curve, poor fit]	
CCN(CC(=O)Nc1c(C(=O)OC)[nH]c2ccc(C)cc12)c1ccc2c(c1)OCO2	inconclusive: 20.6 µM [falling, single point]	
CCNc1nc(NC(C)C)nc(NS(=O)(=O)c2ccc(N)cc2)n1	inconclusive: 0.082 µM [falling, full curve, poor fit]	
CCOC(=O)c1c(-c2ccc(C)o2)csc1NC(=O)CSc1nncs1	active: 20.6 µM	
CCN1C(=O)[C@H]2[C@@H](c3ccc(-c4ccc(F)cc4)cc3)N3CCCC[C@@]3(C(=O)OC)[C@H]2C1=O	inconclusive: 29.1 µM [falling, single point]	
CC(C)(C)c1ccc(CN(Cc2ccco2)Cc2nnnn2C2CCCC2)cc1	inconclusive: 0.517 µM [falling, full curve, poor fit]	
O=C(Nc1cccc2ccccc12)ON=C1CCCCC1	inconclusive: 29.1 µM [activator, single point]	
CSC1=N/C(=C\c2ccc(C)o2)C(=O)S1		inactive: -14.5%
CC1(C)CC(=O)c2cc(OCC(=O)NCCCN3CCN(c4ccc(F)cc4)CC3)ccc2O1	inconclusive: 23.1 µM [falling, single point]	
O=C(NCCc1ccccc1)C(=O)c1c[nH]c2ccccc12	inconclusive: 20.6 µM [activator, single point]	
O=c1[nH]cnc(O)c1N=Nc1ccccc1	inconclusive: 2.31 µM [falling, full curve, poor fit]	
O=C(NCCCn1ccnc1)/C(=C/c1ccco1)NC(=O)c1ccccc1	inconclusive: 5.8 µM [activator, partial curve]	
O=C(COc1ccccc1)NCCc1nc2ccccc2[nH]1	inconclusive: 4.11 µM [activator, full curve, poor fit]	
CCOC(=O)c1c(NC(=O)c2ccoc2C)sc2c1CCC2	inconclusive: 4.11 µM [falling, partial curve, poor fit]	
COc1ccc(-c2csc(Nc3ccc(O)cc3)n2)cc1	inconclusive: 3.26 µM [activator, partial curve]	

A different layout for 3 compounds above.

| Structure (SMILES) | Potency | activity change, negative = inhibition |
| --- | --- | --- |
| CC(C)(C)c1ccc(CN(Cc2ccco2)Cc2nnnn2C2CCCC2)cc1 | inconclusive: 0.517 µM [falling, full curve, poor fit] |  |
| O=C(NCCc1ccccc1)C(=O)c1c[nH]c2ccccc12 | inconclusive: 20.6 µM [activator, single point] |  |
| O=C(NCCCn1ccnc1)/C(=C/c1ccco1)NC(=O)c1ccccc1 | inconclusive: 5.8 µM [activator, partial curve] |  |

Source: PubChem BioAssay AID504444 (National Center for Advancing Translational Sciences (NCATS), 2011)
